Source: patent publication US5872107A, “Treatment of urogenital cancer with boron neutron capture therapy” (Emory University, priority 1997, dated 1999)
The name of at least one read-out is uncertain.

Test: Pharmacokinetics of CDU in plasma after intravenous administration of 25 mg/kg to rats
Type: in vivo, Sprague-Dawley rats
Conditions: assuming exclusively hepatic metabolism
Protocol: 5-Carboranyl-2'-deoxyuridine (CDU) was synthesized by the method of Yamamoto, et al. The chemical purity, confirmed by ^1 H NMR spectral and high-pressure liquid chromatography (HPLC) analysis, was greater than 98%. For intravenous administration, CDU was dissolved in dimethylsulfoxide (DMSO). Internal standard, progesterone, and β-glucuronidase were purchased from Sigma Chemical Company (St. Louis, Mo.). Methanol, HPLC grade, and all other chemicals, analytical grade, were obtained from J. T. Baker (Phillipsburg, N.J.). Partition coefficients were determined one hour after administration.
Five adult male Sprague-Dawley (Harlan Laboratories, Indianapolis, Ind.) rats weighing 303±8 g (mean±SD) were used for the pharmacokinetic study. […]
On the morning of the experiment, rats were placed in individual metabolism cages. […] Urine volume was measured and samples were frozen at -20° C. until analysis.
Concentrations of CDU in plasma, brain, and urine were determined by HPLC. […]
Chromatography was performed on a Hypersil ODC column (5 μm particle size, 4.6×150 mm; Alltech Associates Inc., Deerfield, Ill.) with an online guard column and an isocratic mobile phase of 65% methanol in 10 mM monobasic potassium phosphate, pH 6.3 at a flow rate of 1.5 ml/min. Compounds were detected at a UV wavelength of 274 nm with a detector range setting of 0.005 absorbance units, full scale. […]

5-carboranyl-2'-deoxyuridine [CDU]
intrinsic metabolic clearance: 0.9 L/h/kg
